The other results are listed elsewhere or left out. These are further read-outs of the screen, such as a control signal, another cell line or another target. No call is given for them. The list favours compounds with an active or inconclusive main result. Words in brackets tell the shape of the fitted curve; partial curves, single points and poor fits give uncertain potencies.
experiment: Cell signaling CRE-BLA (Fsk stim); conditions: CHO CRE-bla reporter (cAMP response element driving beta-lactamase), forskolin EC10, beta-lactamase ratio; measured here: 460 nm blue channel
Outline: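 Modulation of forskolin signalling: compounds in titration series added with EC10 NKH 477 to CHO cells carrying a CRE-driven beta-lactamase reporter, 3 h, 37C. CCF4 FRET ratio (460/530 nm, ex 405 nm) gives %activity and AC50.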

Structure (SMILES)	AC50
CCCCN1C(=O)/C(=C2\SC(N3CCCCC3)=NC2=O)c2ccccc21	10 µM [rising, partial curve]
O=C(O)CCC(=O)CCC(=O)c1ccccc1	0.398 µM [falling, full curve, poor fit]
Cc1cc(NS(=O)(=O)c2ccc(NC(=O)CCN3C(=O)c4ccccc4C3=O)cc2)no1	25.1 µM [rising, single point]
Cc1ccc(-n2nnnc2SCCNS(=O)(=O)c2ccccc2)cc1C	1.26 µM [rising, partial curve, poor fit]
O=C(c1cnn2c(C(F)(F)F)cc(-c3ccco3)nc12)N1CCCCCC1	12.6 µM [rising, single point]
CCOC(=O)N1CCN(C(=O)c2cc3c(=O)n(C)c4ccccc4c3n2C)CC1	7.94 µM [rising, partial curve]
COc1cc(NC(=O)c2ccc(-c3ccc(Br)cc3)o2)ccc1NC(=O)C(C)C	2.51 µM [rising, full curve]
COc1ccc(N2CCN(C(c3cc(OC)ccc3OC)c3nnnn3Cc3ccco3)CC2)cc1 (configuration not stated)	10 µM [rising, single point]
COc1ncc2nc(-c3cccs3)c(=O)n(Cc3cccs3)c2n1	3.98 µM [rising, full curve]
Cc1cc(C)n2nc3ccccc3c2n1	5.01 µM [rising, partial curve]
O=C(Cc1nc2ccccc2[nH]1)NCc1ccco1	12.6 µM [rising, single point]
Cc1ccc(C)c(C(=O)CSc2n[nH]c(C)n2)c1	0.316 µM [falling, full curve]
CCNc1oc(-c2cccc3ccccc23)nc1C#N	12.6 µM [rising, partial curve]
Cc1ccccc1N(CC(=O)NCCc1ccccc1)C(=O)c1ccc(N2CCCC2)nc1	0.126 µM [falling, full curve]
c1ccc(-c2nnc(N3CCOCC3)nc2-c2ccccc2)cc1	2.51 µM [rising, partial curve]
CC1CCN(C(=O)Cn2c(=O)n(CCc3ccccc3)c(=O)c3ccccc32)CC1	0.0398 µM [falling, full curve]
O=C(NCCC1=CCCCC1)NC1CCCCC1	0.00501 µM [falling, full curve]
CC1(C)[C@@H](O)CC[C@@]2(C)[C@H]1CC[C@]1(C)[C@H]2C(=O)C=C2[C@@H]3C[C@@](C)(C(=O)O)CC[C@]3(C)CC[C@@]21C	31.6 µM [falling, partial curve]
COC(=O)[C@@]1(Cc2ccccc2)[C@H]2c3cc(C(=O)N4CCCC4)n(CCSCCO)c3C[C@H]2CN1C(=O)c1ccccc1	0.501 µM [rising, full curve, poor fit]
COc1ccc2nc(/N=C\N(C)C)sc2c1	0.00398 µM [falling, full curve]
CCc1nc(SCC(=O)c2cc(C)ccc2C)n[nH]1	1 µM [falling, full curve, poor fit]

Structure (SMILES)	AC50
Cc1noc(C)c1-c1cc(Nc2ccccc2)ncn1	6.31 µM [rising, partial curve]
CC(C)(C)c1ccc(C(=O)CSc2ncn[nH]2)cc1	12.6 µM [falling, single point]
CCCn1c(N)c(C(=O)CSc2nc3ccccc3n2CCC#N)c(=O)n(C)c1=O	1.58 µM [rising, full curve]
CCCCn1c(=S)[nH]c2ncccc2c1=O	1 µM [rising, full curve, poor fit]
O=C(Nc1ccc(N2CCCC2)c(Cl)c1)c1ccc(Br)o1	0.794 µM [rising, single point]
COc1cccc(-c2cc(NCc3ccccc3OC)ncn2)c1	10 µM [rising, partial curve]
C=CCn1cc(C(=O)NCC2CCCO2)c(=O)c2cc(S(=O)(=O)N3CCCCCC3)ccc21 (configuration not stated)	3.98 µM [rising, partial curve]
O=C(O)c1cc(=O)c2c(Cl)cc(Cl)cc2[nH]1	31.6 µM [falling, single point]
Cc1ccc(S(=O)(=O)N2CCC(C(=O)N[C@H](C(=O)NCC3CCCO3)C(C)C)CC2)cc1 (some centres not stated)	0.316 µM [falling, full curve, poor fit]
CCCNc1nc2c(c(=O)[nH]c(=O)n2C)n1Cc1ccc(F)cc1	7.94 µM [rising, partial curve]
Cc1cc(C)nc(N2CCCC(C(=O)Nc3ccc4nc(C)c(C)nc4c3)C2)n1 (configuration not stated)	7.94 µM [rising, partial curve]
COc1ccc(-c2noc(CSc3ccccc3)n2)cc1OC	10 µM [rising, partial curve]
CCC(Sc1nccn1C)C(=O)Nc1cccc2ccccc12 (configuration not stated)	0.00316 µM [falling, full curve, poor fit]
Cc1nc2cnc(N3CCN(C)CC3)nc2n(Cc2ccc(F)cc2)c1=O	6.31 µM [rising, partial curve]
CCCSc1nc2c(cnn2-c2ccc(F)cc2)c(=O)[nH]1	1.58 µM [rising, full curve]
Cc1nn(-c2ccccc2)c2[nH]c(=O)c(CNc3ccc(N4CCOCC4)cc3)cc12	12.6 µM [rising, partial curve]
Cc1cc(C)c2c(n1)nn1c(NCCCN(C)C)cc(C)nc21	12.6 µM [rising, single point]
CC1(C)CC(=O)C(=CN2CCN(C(=O)c3ccco3)CC2)C(=O)C1	25.1 µM [rising, single point]
CCOC(=O)c1c(C2CCN(C(=O)OCC)CC2)nc2ccccn12	3.98 µM [rising, partial curve]
CC(C)C[C@@H](CC(=O)N[C@@H](CCCN)CC(=O)N[C@@H]1CCNC[C@H]1C(=O)N[C@H](CC(=O)N[C@@H](CCC(=O)O)CC(=O)O)Cc1c[nH]c2ccccc12)NC(=O)[C@@H]1CNCC[C@H]1N	7.94 µM [falling, full curve, poor fit]
O=C1CC(NC23CC4CC(CC(C4)C2)C3)C(=O)N1c1ccc2c(c1)OCO2 (configuration not stated)	0.00316 µM [falling, full curve, poor fit]

Laid out differently: entries from further up
Structure (SMILES) | AC50
CC(C)(C)c1ccc(C(=O)CSc2ncn[nH]2)cc1 | 12.6 µM [falling, single point]
COc1cccc(-c2cc(NCc3ccccc3OC)ncn2)c1 | 10 µM [rising, partial curve]
Cc1ccc(S(=O)(=O)N2CCC(C(=O)N[C@H](C(=O)NCC3CCCO3)C(C)C)CC2)cc1 (some centres not stated) | 0.316 µM [falling, full curve, poor fit]
CCCNc1nc2c(c(=O)[nH]c(=O)n2C)n1Cc1ccc(F)cc1 | 7.94 µM [rising, partial curve]
CCC(Sc1nccn1C)C(=O)Nc1cccc2ccccc12 (configuration not stated) | 0.00316 µM [falling, full curve, poor fit]
Cc1nc2cnc(N3CCN(C)CC3)nc2n(Cc2ccc(F)cc2)c1=O | 6.31 µM [rising, partial curve]
CCCSc1nc2c(cnn2-c2ccc(F)cc2)c(=O)[nH]1 | 1.58 µM [rising, full curve]
CCOC(=O)c1c(C2CCN(C(=O)OCC)CC2)nc2ccccn12 | 3.98 µM [rising, partial curve]
CC(C)C[C@@H](CC(=O)N[C@@H](CCCN)CC(=O)N[C@@H]1CCNC[C@H]1C(=O)N[C@H](CC(=O)N[C@@H](CCC(=O)O)CC(=O)O)Cc1c[nH]c2ccccc12)NC(=O)[C@@H]1CNCC[C@H]1N | 7.94 µM [falling, full curve, poor fit]

— PubChem BioAssay AID662 (National Center for Advancing Translational Sciences (NCATS), 2007)
